The chains are these.
T1: follistatin-like 1 (FSTL1) (human (endogenous in A253)) (UniProt Q12841)
T1 sequence: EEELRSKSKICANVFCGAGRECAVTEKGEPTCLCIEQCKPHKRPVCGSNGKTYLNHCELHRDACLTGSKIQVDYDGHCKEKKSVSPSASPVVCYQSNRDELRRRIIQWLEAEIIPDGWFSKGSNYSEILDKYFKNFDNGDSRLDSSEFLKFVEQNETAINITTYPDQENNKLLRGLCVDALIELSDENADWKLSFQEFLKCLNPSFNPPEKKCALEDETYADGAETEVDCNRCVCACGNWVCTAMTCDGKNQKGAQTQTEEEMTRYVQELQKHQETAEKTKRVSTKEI

Protein sequences, listed by entry. Tags and fused reporters are not part of them. Residues count along the entry.
UniProt O00744, residues 29-389: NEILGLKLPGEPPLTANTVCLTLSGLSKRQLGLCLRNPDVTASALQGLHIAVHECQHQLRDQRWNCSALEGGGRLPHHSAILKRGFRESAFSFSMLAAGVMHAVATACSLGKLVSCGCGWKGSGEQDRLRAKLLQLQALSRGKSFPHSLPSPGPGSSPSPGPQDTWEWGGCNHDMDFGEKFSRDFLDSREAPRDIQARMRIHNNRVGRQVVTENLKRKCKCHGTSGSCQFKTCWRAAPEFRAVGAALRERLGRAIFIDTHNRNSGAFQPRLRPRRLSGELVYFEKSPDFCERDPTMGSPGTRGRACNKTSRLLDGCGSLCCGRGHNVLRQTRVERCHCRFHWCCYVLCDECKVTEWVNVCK

B1: Wnt5a (protein, UniProt P41221 62-380)
chain: IIGAQPLCSQLAGLSQGQKKLCHLYQDHMQYIGEGAKTGIKECQYQFRHRRWNCSTVDNTSVFGRVMQIGSRETAFTYAVSAAGVVNAMSRACREGELSTCGCSRAARPKDLPRDWLWGGCGDNIDYGYRFAKEFVDARERERIHAKGSYESARILMNLHNNEAGRRTVYNLADVACKCHGVSGSCSLKTCWLQLADFRKVGDALKEKYDSAAAMRLNSRGKLVQVNSRFNSPTTQDLVYIDPSPDYCVRNESTGSLGTQGRLCNKTSEGMDGCELMCCGRGYDQFKTVQTERCHCKFHWCCYVKCKKCTEIVDQFVCK
B2: Wnt7a (protein, UniProt O00755 32-349)
chain: LGASIICNKIPGLAPRQRAICQSRPDAIIVIGEGSQMGLDECQFQFRNGRWNCSALGERTVFGKELKVGSREAAFTYAIIAAGVAHAITAACTQGNLSDCGCDKEKQGQYHRDEGWKWGGCSADIRYGIGFAKVFVDAREIKQNARTLMNLHNNEAGRKILEENMKLECKCHGVSGSCTTKTCWTTLPQFRELGYVLKDKYNEAVHVEPVRASRNKRPTFLKIKKPLSYRKPMDTDLVYIEKSPNYCEEDPVTGSVGTQGRACNKTAPQASGCDLMCCGRGYNTHQYARVWQCNCKFHWCCYVKCNTCSERTEMYTCK
B3: Wnt4 (protein, UniProt P56705 23-351)
chain: SNWLYLAKLSSVGSISEEETCEKLKGLIQRQVQMCKRNLEVMDSVRRGAQLAIEECQYQFRNRRWNCSTLDSLPVFGKVVTQGTREAAFVYAISSAGVAFAVTRACSSGELEKCGCDRTVHGVSPQGFQWSGCSDNIAYGVAFSQSFVDVRERSKGASSSRALMNLHNNEAGRKAILTHMRVECKCHGVSGSCEVKTCWRAVPPFRQVGHALKEKFDGATEVEPRRVGSSRALVPRNAQFKPHTDEDLVYLEPSPDFCEQDMRSGVLGTRGRTCNKTSKAIDGCELLCCGRGFHTAQVELAERCSCKFHWCCFVKCRQCQRLVELHTCR

These are yes or no findings as the source states them, for the method shown. In cells and extracts the contact can be indirect. Some binding calls cover weakened binding; strength is not graded here.

This experiment deals with T1, follistatin-like 1 (FSTL1) (human (endogenous in A253)). Description: co-IP; endogenous proteins from HNSCC cell lysates (RIPA buffer, sonicated), Pierce co-immunoprecipitation kit, Western blot; control or shDIAPH1 cells for the DIAPH1 and Arpin precipitations; IgG control for the FSTL1 precipitation. For orientation: Immunoblotting shows a protein as a band on a membrane.
Turning to Wnt10b (from UniProt O00744 29-389), the binding result is “no binding”. In the case of B1, the binding result is recorded as “no binding”. Turning to B2, the binding entry is listed as “binds”. As for B3, the binding entry is “no binding”.

(Values after paper PMC5626400.)
